# This is one part of the list. Many values rest on one well or one pass, so single values are uncertain.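 The apoptosis fraction was the count of cleaved-PARP antibody-stained nuclei relative to all DNA-stained nuclei, imaged in 1,536-well plates. Screening doses were set so most cells survived, and baseline and induced cleaved-PARP levels vary greatly across cell lines.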
# What was measured:
# Test in all cases: cleaved PARP positive nuclei fraction relative to DMSO control; melanoma cells; higher = more apoptosis
# Details in all cases: library dose: low library concentration; 72 h
# [1] = system: 501Mel
# [2] = system: A101D
# [3] = system: A2058
# [4] = system: A375
# [5] = system: C32
# [6] = system: CBRC008 (line from a melanoma biopsy)
# [7] = system: CBRC014 (line from a melanoma biopsy)
# [8] = system: CBRC016 (line from a melanoma biopsy)
# [9] = system: CBRC017 (line from a melanoma biopsy)
# [10] = system: CBRC013 (line from a melanoma biopsy)
Compound,cleaved PARP positive nuclei fraction [1],cleaved PARP positive nuclei fraction [2],cleaved PARP positive nuclei fraction [3],cleaved PARP positive nuclei fraction [4],cleaved PARP positive nuclei fraction [5],cleaved PARP positive nuclei fraction [6],cleaved PARP positive nuclei fraction [7],cleaved PARP positive nuclei fraction [8],cleaved PARP positive nuclei fraction [9],cleaved PARP positive nuclei fraction [10]
"C[As](C)SC[C@H](NC(=O)CC[C@H](N)C(=O)O)C(=O)NCC(=O)O [Darinaparsin] + Nc1cccc2c1CN(C1CCC(=O)NC1=O)C2=O [lenalidomide] (first compound 0.4 µM, partner dose 1 µM)",87.2%,40.7%,124%,24.2%,73.9%,102%,94.7%,81.7%,90%,
"Cn1cnc2c(F)c(Nc3ccc(Br)cc3Cl)c(C(=O)NOCCO)cc21 [selumetinib] + C[As](C)SC[C@H](NC(=O)CC[C@H](N)C(=O)O)C(=O)NCC(=O)O [Darinaparsin] (first compound 0.015 µM, partner dose 0.4 µM)",6320%,150%,115%,52.6%,26%,263%,185%,235%,178%,
"CS(=O)(=O)CCNCc1ccc(-c2ccc3ncnc(Nc4ccc(OCc5cccc(F)c5)c(Cl)c4)c3c2)o1 [lapatinib] + C[As](C)SC[C@H](NC(=O)CC[C@H](N)C(=O)O)C(=O)NCC(=O)O [Darinaparsin] (first compound 0.8 µM, partner dose 0.4 µM)",45.7%,30.8%,105%,229%,61%,21.9%,109%,90.3%,111%,
"Cn1cc(C2=C(c3cn(C4CCN(Cc5ccccn5)CC4)c4ccccc34)C(=O)NC2=O)c2ccccc21 [Enzastaurin] + CC(=O)c1c(C)c2cnc(Nc3ccc(N4CCNCC4)cn3)nc2n(C2CCCC2)c1=O [palbociclib] (first compound 0.8 µM, partner dose 0.04 µM)",119%,113%,254%,151%,84%,56.8%,124%,89.4%,121%,
"Cc1ccc(Nc2nccc(N(C)c3ccc4c(C)n(C)nc4c3)n2)cc1S(N)(=O)=O [Pazopanib] + N.N.[Cl][Pt][Cl] [cisplatin] (first compound 0.4 µM, partner dose 1.6 µM)",50.2%,65.1%,102%,62%,71.1%,161%,101%,51.9%,84.8%,
"O=C(Nc1cccc(Cl)c1)Nc1ncc(CCNc2ncnc3ccsc23)s1 + O=C(Oc1ccc([N+](=O)[O-])cc1)N1CCC(C(O)(c2ccc3c(c2)OCO3)c2ccc3c(c2)OCO3)CC1 [JZL184] (first compound 0.0008 µM, partner dose 1 µM)",134%,511%,115%,22.2%,61.8%,,90.5%,40.2%,63.5%,365%
"C[C@]12O[C@H](C[C@]1(O)CO)n1c3ccccc3c3c4c(c5c6ccccc6n2c5c31)CNC4=O [Lestaurtinib] + Cc1cc(Nc2cc(N3CCN(C)CC3)nc(/C=C/c3ccccc3)n2)n[nH]1 [ENMD2076] (first compound 0.004 µM, partner dose 0.04 µM)",74.6%,44.6%,85%,89.8%,144%,122%,89.9%,28.2%,120%,
"COc1ccc(COc2ccc(Cc3cnc(N)nc3N)cc2OC)cc1 + Cc1cc(SCc2sc(-c3ccc(C(F)(F)F)c(F)c3)nc2C)ccc1OCC(=O)O [GW0742] (first compound 1 µM, partner dose 2 µM)",56.4%,112%,272%,83.5%,97.2%,,87.1%,83.6%,67.3%,188%
"CC1(C)NC(=O)N(c2ccc([N+](=O)[O-])c(C(F)(F)F)c2)C1=O [nilutamide] + Cc1cc(SCc2sc(-c3ccc(C(F)(F)F)c(F)c3)nc2C)ccc1OCC(=O)O [GW0742] (first compound 1 µM, partner dose 2 µM)",82.2%,220%,80.5%,98.2%,143%,,101%,159%,78.7%,90.8%
"CC(C)C[C@H](NC(=O)[C@H](Cc1ccccc1)NC(=O)c1cnccn1)B(O)O [Bortezomib] + N.N.[Cl][Pt][Cl] [cisplatin] (first compound 0.001 µM, partner dose 1.6 µM)",6520%,1740%,59%,24.3%,86.1%,698%,192%,324%,521%,
"C[C@]12O[C@H](C[C@]1(O)CO)n1c3ccccc3c3c4c(c5c6ccccc6n2c5c31)CNC4=O [Lestaurtinib] + CCN(CC)CCNC(=O)c1c(C)[nH]c(/C=C2\C(=O)Nc3ccc(F)cc32)c1C [sunitinib] (first compound 0.004 µM, partner dose 0.4 µM)",357%,108%,61.1%,375%,98%,72.4%,90.4%,125%,110%,
"C[As](C)SC[C@H](NC(=O)CC[C@H](N)C(=O)O)C(=O)NCC(=O)O [Darinaparsin] + Cn1c(Nc2ccc(C(F)(F)F)cc2)nc2cc(Oc3ccnc(-c4ncc(C(F)(F)F)[nH]4)c3)ccc21 [CHIR265] (first compound 0.4 µM, partner dose 0.08 µM)",187%,83.9%,174%,107%,170%,104%,111%,46.8%,254%,
"N#CC[C@H](C1CCCC1)n1cc(-c2ncnc3[nH]ccc23)cn1 [ruxolitinib] + Cn1cc(C2=C(c3cn(C4CCN(Cc5ccccn5)CC4)c4ccccc34)C(=O)NC2=O)c2ccccc21 [Enzastaurin] (first compound 1 µM, partner dose 0.8 µM)",106%,15.5%,112%,165%,68.2%,146%,104%,104%,82.7%,
"COc1cc([C@@H]2c3cc4c(cc3[C@@H](O[C@@H]3O[C@@H]5CO[C@@H](C)O[C@H]5[C@H](O)[C@H]3O)[C@H]3COC(=O)[C@H]23)OCO4)cc(OC)c1O [etoposide] + C[As](C)SC[C@H](NC(=O)CC[C@H](N)C(=O)O)C(=O)NCC(=O)O [Darinaparsin] (first compound 0.02 µM, partner dose 0.4 µM)",85.4%,162%,179%,37.2%,68.3%,88.4%,,70.2%,108%,
"CC[C@]1(O)C[C@H]2CN(CCc3c([nH]c4ccccc34)[C@@](C(=O)OC)(c3cc4c(cc3OC)N(C=O)[C@H]3[C@@](O)(C(=O)OC)[C@H](OC(C)=O)[C@]5(CC)C=CCN6CC[C@]43[C@@H]65)C2)C1 [vincristine] + C[C@]12O[C@H](C[C@]1(O)CO)n1c3ccccc3c3c4c(c5c6ccccc6n2c5c31)CNC4=O [Lestaurtinib] (first compound 0.0001 µM, partner dose 0.004 µM)",98.6%,314%,263%,106%,83.2%,144%,82.5%,79.9%,93.5%,
"Cn1cc(C2=C(c3cn(C4CCN(Cc5ccccn5)CC4)c4ccccc34)C(=O)NC2=O)c2ccccc21 [Enzastaurin] + NC(=O)c1ccc(N(C(N)=O)c2c(F)cccc2F)nc1-c1ccc(F)cc1F [VX702] (first compound 0.8 µM, partner dose 0.4 µM)",69.2%,47.7%,69.2%,183%,68.5%,110%,106%,19.5%,79.9%,
"C[C@]12O[C@H](C[C@]1(O)CO)n1c3ccccc3c3c4c(c5c6ccccc6n2c5c31)CNC4=O [Lestaurtinib] + Nc1ccn([C@@H]2O[C@H](CO)[C@@H](O)C2(F)F)c(=O)n1 [gemcitabine] (first compound 0.004 µM, partner dose 0.0004 µM)",106%,50.7%,27.6%,130%,74.5%,42.3%,110%,48.8%,115%,
"CN(c1ncccc1CNc1nc(Nc2ccc3c(c2)CC(=O)N3)ncc1C(F)(F)F)S(C)(=O)=O + N.N.[Cl][Pt][Cl] [cisplatin] (first compound 0.08 µM, partner dose 1.6 µM)",139%,44.8%,105%,232%,93.2%,208%,107%,180%,86.9%,
"Cn1cc(C2=C(c3cn(C4CCN(Cc5ccccn5)CC4)c4ccccc34)C(=O)NC2=O)c2ccccc21 [Enzastaurin] + O=C(O)c1ccc2c(c1)nc(Nc1cccc(Cl)c1)c1ccncc12 [CX4945] (first compound 0.8 µM, partner dose 0.4 µM)",70.5%,227%,49.8%,119%,85.1%,87.6%,104%,85.9%,87.1%,
"Cn1cc(C2=C(c3cn(C4CCN(Cc5ccccn5)CC4)c4ccccc34)C(=O)NC2=O)c2ccccc21 [Enzastaurin] + CCCCCCCCc1ccc(CCC(N)(CO)CO)cc1 [fingolimod] (first compound 0.8 µM, partner dose 2 µM)",170%,54.1%,98.3%,164%,33.1%,102%,104%,72.4%,121%,

# Look-ups from above:
# Entry for C[As](C)SC[C@H](NC(=O)CC[C@H](N)C(=O)O)C(=O)NCC(=O)O [Darinaparsin] + Cn1c(Nc2ccc(C(F)(F)F)cc2)nc2cc(Oc3ccnc(-c4ncc(C(F)(F)F)[nH]4)c3)ccc21 [CHIR265] (first compound 0.4 µM, partner dose 0.08 µM) under cleaved PARP positive nuclei fraction [1]: 187%
# Entry for Cn1cc(C2=C(c3cn(C4CCN(Cc5ccccn5)CC4)c4ccccc34)C(=O)NC2=O)c2ccccc21 [Enzastaurin] + CCCCCCCCc1ccc(CCC(N)(CO)CO)cc1 [fingolimod] (first compound 0.8 µM, partner dose 2 µM) under cleaved PARP positive nuclei fraction [9]: 121%

# Source: the supplement of paper PMC4604168 (melanoma cell lines)
